{"source": "paper PMC10286275", "about": "(ACS Omega, 2023)", "key": {"SH-SY5Y cells [1]": {"test_system": "SH-SY5Y cells", "experiment": "Toxicity against SH-SY5Y cell line", "type": "cell-based, human", "details": "24 h, MTT"}, "SH-SY5Y cells [2]": {"test_system": "SH-SY5Y cells", "experiment": "Neuroprotection against H2O2-induced oxidative damage in SH-SY5Y cells", "type": "cell-based, human", "details": "12.5 μmol/L, 24 h pretreatment, then H2O2 650 μM 4 h"}}, "data": [{"smiles": "COc1cc2c(cc1OC)C(=O)C(CC1CCN(Cc3ccccc3)CC1)C2", "note": "(stereo not drawn) [DNP, Donepezil]", "values": [{"measurement": "survival rate (%)", "setting": "SH-SY5Y cells [1]; 6.25 μmol/L", "value": "96.14 ± 0.12", "unit": "%"}, {"measurement": "survival rate (%)", "setting": "SH-SY5Y cells [1]; 12.5 μmol/L", "value": "95.21 ± 1.68", "unit": "%"}, {"measurement": "survival rate (%), neuroprotective effect against H2O2-induced cell death", "setting": "SH-SY5Y cells [2]", "value": "57.21 ± 0.54", "unit": "%"}]}]}
